From the supplement of paper PMC4807443
Structures can show the parent of a compound that is named as a salt. Some of the results follow. The numbers are fractions of the control, whatever unit the source prints. Most entries show no effect beyond the scatter of the controls.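 A lentiviral reporter stably expressed in MIN6 mouse insulinoma beta cells uses Pdx1 and Ins1 promoters to drive separate nucleus-targeted fluorescent proteins; automated imaging with Hoechst nuclear stain counted cells. Possible hits were drugs shifting Ins1 promoter signal more than two median absolute deviations from DMSO controls, with Pdx1 activity roughly normal.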

tested on: MIN6; assay: % Pdx1+ Ins1-low (RFP-only, immature) cells relative to DMSO control (fold of DMSO control); higher = more immature Pdx1+/Ins1-low cells; conditions: 8.5 µM; 48 h; glucose 5 mM

Row | Structure (SMILES) | % Pdx1+ Ins1-low
1 | CSc1ccc2c(c1)N(CCC1CCCCN1C)c1ccccc1S2 (stereo unspecified) [Thioridazine hydrochloride] | 0.86
2 | CC/C(=C(/CC)c1ccc(O)cc1)c1ccc(O)cc1 [Diethylstilbestrol] | 0.935
3 | CC1=C(/C=C/C(C)=C/C=C/C(C)=C\C(=O)O)C(C)(C)CCC1 [Isotretinoin] | 1
4 | CN(Cc1cnc2nc(N)nc(N)c2n1)c1ccc(C(=O)N[C@@H](CCC(=O)O)C(=O)O)cc1 (racemic) [Amethopterin (R,S)] | 0.634
5 | CN(Cc1cnc2nc(N)nc(N)c2n1)c1ccc(C(=O)N[C@@H](CCC(=O)O)C(=O)O)cc1 [Methotrexate] | 1.23
6 | CNC(C)CCC=C(C)C (stereo unspecified) [Isometheptene mucate] | 0.976
7 | O=C(COc1ccc(Cl)cc1)N1CCN(Cc2ccc3c(c2)OCO3)CC1 [Fipexide hydrochloride] | 0.934
8 | CCN(CC)CCNc1ccc(CO)c2sc3ccccc3c(=O)c12 [Hycanthone] | 1.35
9 | CN(C)c1ccc(O)c2c1C[C@H]1C[C@H]3[C@H](N(C)C)C(O)=C(C(N)=O)C(=O)[C@@]3(O)C(O)=C1C2=O [Minocycline hydrochloride] | 0.827
10 | Cc1ccsc1/C=C/C1=NCCCN1C [Morantel tartrate] | 0.947
11 | Cc1ccc(S(=O)(=O)NC(=O)NN2CCCCCC2)cc1 [Tolazamide] | 1.28
12 | C[C@]12CC[C@@H]3c4ccc(OS(=O)(=O)O)cc4CC[C@H]3[C@@H]1CCC2=O [Estropipate] | 0.707
13 | OC(CCCN1CCCCC1)(c1ccccc1)c1ccccc1 [Diphenidol hydrochloride] | 0.836
14 | CCN(CC)CCOC(=O)C(c1ccccc1)c1ccccc1 [Adiphenine hydrochloride] | 0.986
15 | CCOC(=O)c1ccc(N)cc1 [Benzocaine] | 0.674
16 | C=CCSCC1Nc2cc(Cl)c(S(N)(=O)=O)cc2S(=O)(=O)N1 (stereo unspecified) [Althiazide] | 0.488
17 | CC(=O)N(CC(O)CN(C(C)=O)c1c(I)c(C(=O)NCC(O)CO)c(I)c(C(=O)NCC(O)CO)c1I)c1c(I)c(C(=O)NCC(O)CO)c(I)c(C(=O)NCC(O)CO)c1I (stereo unspecified) [Iodixanol] | 0.63
18 | CC(C(=O)O)c1ccc(C(=O)c2ccccc2)s1 (stereo unspecified) [Tiaprofenic acid] | 0.609
19 | c1ccc(CN(CC2=NCCN2)c2ccccc2)cc1 [Antazoline hydrochloride] | 0.46
20 | O=C(/C=C/c1ccc(O)c(O)c1)O[C@@H]1C[C@](O)(C(=O)O)C[C@@H](O)[C@H]1O [Chlorogenic acid] | 0.892
21 | C=CCOC(Cn1ccnc1)c1ccc(Cl)cc1Cl (stereo unspecified) [Enilconazole] | 0.995

Single values from the entries so far:
In % Pdx1+ Ins1-low, CNC(C)CCC=C(C)C (stereo unspecified) [Isometheptene mucate] shows 0.976
In % Pdx1+ Ins1-low, C[C@]12CC[C@@H]3c4ccc(OS(=O)(=O)O)cc4CC[C@H]3[C@@H]1CCC2=O [Estropipate] shows 0.707
